Test results from patent US20230399394A1.
Substitutions are numbered along the chain they refer to. No constants are given. Whether binding was seen depends on the method and setting. Some results given as binding are weak or reduced against the parent protein; the word gives no strength. One block for each binder: values may come before it.

Experiments:
[1] = biological target: Cynomolgus IL-33-his (cynomolgus); assay: indirect ELISA, biotinylated cynomolgus IL-33-his on streptavidin plate
[2] = biological target: Cynomolgus IL-33-his (cynomolgus); assay: indirect ELISA, biotinylated cynomolgus IL-33-his captured on a streptavidin plate, HRP goat anti-mouse IgG, absorbance 450 nm
[3] = biological target: Cynomolgus IL-33-his (cynomolgus); assay: SPR Biacore 8K as Example 14

binding [1]: binds
binding [2]: binds
B1: 874F7 (antibody, V domains shown)
VH: QVQLKESGPGLVAPSHSLSITCNVSGFSLSKYGVHWIRQIPGRGLDWLGVLRAGGSTGYNSALMSRLSISKDSSKSQVFLKMNDLRTDDTAVYFCVRDHYYYSSYGGFVYWGQGTLVTVSA
VL: DIQMTQSPASQSASLGESVTITCLASQTIGAWLAWYRQQPGKSPQLLIYAATRLADGVPSRFSGSGSGTEFSFKINNLQAEDFVSYYCQQLDSSPYTFGGGTRLEM

binding [1]: binds
binding [2]: binds
B2: 871G1 (antibody, V domains shown)
VH: QVHLKESGPGLVAPSQSLSITCNVSGFSLSKYGVHWIRQTPGRGLDWLGVLRAGGTISYNSALMSRLSISEDISKSQVFLKMNDLQTDDSAIYFCARDHYYYSSFGGFASWGQGTLVTVSA
VL: B1 VL with E70K, S85I, D92N, S94T

binding [3]: binds
B3: 864F3-Hu4 (antibody, human IgG4 S228P, kappa, V domains shown)
VH: QVQLQESGPGLVKPSETLSLTCTVSGFSLSKYGVHWIRQPPGKGLEWIGVLRAGGTISYNSALMSRVTISEDISKSQVSLKLSSVTAADTAVYYCARDHYYYSSFGGFASWGQGTLVTVSS
VL: DIQMTQSPSSLSASVGDRVTITCLASQTIATWLAWYQQKPGKSPKLLIYAATRLADGVPSRFSGSGSGTDFTLTISSLQPEDFATYYCQQLYNTPYTFGQGTKVEIKR
